Measurements: PubChem BioAssay AID504467 (National Center for Advancing Translational Sciences (NCATS), 2011)
Among all 330,000 compounds or so, about 7,700 (2.3%) were called active. Inconclusive results, whose numbers are uncertain, are shown with a selection of clear calls. Calls come from the whole dose curve; as a rule, active = well fitted inhibition curve with a large enough effect; inconclusive = small, poorly fitted or top-dose-only effect, or effect the other way; inactive = flat fitted curve, though single readings scatter. Where the call is inconclusive, the potency comes from a doubtful curve fit.

test: qHTS screen for small molecules that inhibit ELG1-dependent DNA repair in human embryonic kidney (HEK293T) cells expressing luciferase-tagged ELG1; conditions: HEK293T ELG1-luciferase reporter, luminescence, 16 h, DNA damage induced by 5-fluorouridine; series mostly up to 46.1 µM; note: nearly all actives have a fitted effect of over 55% in size
How it was run: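 Reporter activity after DNA damage by 5-fluorouridine is monitored. Compound-treated cells incubate 16 hr at 37 °C, then ONE-Glo is added for 30 min before luminescence reading.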
Potency is the fitted concentration of half-maximal effect.

| SMILES | Potency |
| --- | --- |
| COC(=O)C1=C(c2ccc(F)cc2OCc2ccccc2)C[C@@H]2CC[C@H]1N2C(=O)NCc1ccc2[nH]ccc2c1 | inconclusive: 13 µM [inhibitor, partial curve, poor fit] |
| COc1ccc(CC2(CCc3ccncc3)C(=O)NC(=O)NC2=O)c(OC)c1 | inconclusive: 29.1 µM [inhibitor, single point] |
| CC(=NCCC1=CCCCC1)c1c(O)n(C)c(=O)n(C)c1=O | inconclusive: 35.5 µM [inhibitor, single point] |
| COc1ccccc1N1C(=O)NC(=O)/C(=C/c2ccc3c(c2)Cc2ccccc2-3)C1=O | inconclusive: 23.1 µM [activator, partial curve, poor fit] |
| COc1ccc(-c2cc(=NCCC(=O)O)c3cc(C)ccc3o2)cc1 | inconclusive: 18.3 µM [activator, partial curve] |
| CN1/C(=C\C=C\C2=[N+](C)c3ccc4ccccc4c3C2(C)C)C(C)(C)c2ccccc21 | inconclusive: 11.2 µM [inhibitor, partial curve, poor fit] |
| C[C@@H]1O[C@@H](O[C@H]2C[C@@H](O)[C@]3(CO)[C@@H]4C(CC[C@]3(O)C2)[C@@]2(O)CC[C@H](C3COC(=O)C3)[C@@]2(C)C[C@H]4O)[C@H](O)[C@H](O)[C@H]1O (stereo not given in full) | active: 1.78 µM |
| CCc1c(C)nc(N)nc1N1N=C1SCCOc1ccccc1 | inactive |
| C/C(CC(=O)Nc1ccc(Cl)cn1)=N\NC(=O)Cc1cccs1 | inconclusive: 20.6 µM [activator, partial curve] |
| O=C(O)CCC(=O)NCCC1=c2ccccc2=N/C1=C\c1c(O)n(Cc2ccc(F)cc2)c(=S)[nH]c1=O | inconclusive: 29.1 µM [activator, single point] |
| COc1ccc(C(=O)NCc2cc3ccccc3n2C)cc1 | inconclusive: 18.3 µM [activator, partial curve, poor fit] |
| O=C(O)C(F)(F)S(=O)(=O)O | inconclusive: 29.1 µM [activator, single point] |
| CCCN1CC(C)C(OC(C)=O)(c2ccccc2)CC1C (stereo not given) | inconclusive: 14.6 µM [activator, partial curve, poor fit] |
| COc1cc2c(cc1/C=C/[N+](=O)[O-])OCO2 | inconclusive: 29.1 µM [activator, single point] |
| O=c1c2ccccc2nc(/C=C/c2ccc([N+](=O)[O-])o2)n1-c1ccc(O)cc1 | inconclusive: 29.1 µM [inhibitor, single point] |
| CCN1CCN(Cc2cc(Br)cc(Br)c2O)CC1 | inactive |
| COc1ccc(C(=O)O/N=C(/C(N)=O)P(=O)(OC(C)C)OC(C)C)cc1 | inactive |
| OC(c1ccccc1)(c1ccccc1)C1CCCN1 (stereo not given) | inconclusive: 18.4 µM [activator, partial curve, poor fit] |
| COC(=O)[C@@H]1C[C@@]1(C)[C@@H](NP(=O)(c1ccccc1)c1ccccc1)c1ccccc1 | inactive |
| Cc1ccc(/C=C2\C(=O)NC(=S)N(c3ccccc3F)C2=O)s1 | active: 23.1 µM |
| Cc1ccc(S(=O)(=O)NCCC(=O)Nc2ccc(Cl)cc2C(=O)c2ccccc2)cc1 | inconclusive: 29.1 µM [inhibitor, single point] |
| CC1=NN(c2ccccc2)C(=O)/C1=C/c1c(O)[nH]c(=S)[nH]c1=O | inactive |

| SMILES | Potency |
| --- | --- |
| O=c1oc2ccccc2c(O)c1[C@H]1c2ccc(O)cc2Oc2c1c(=O)oc1ccccc21 | inconclusive: 29.1 µM [inhibitor, partial curve, poor fit] |
| COC(=O)C1=C(c2ccc(OC)c(OC)c2)C[C@@H]2CC[C@H]1N2C(=O)NCCc1ccccc1 | inconclusive: 9.2 µM [activator, partial curve, poor fit] |
| O=C(CSc1nnc(NC(=O)c2ccccc2F)s1)NCc1ccc(F)cc1 | inconclusive: 11.6 µM [activator, partial curve] |
| Cc1nc2ccccc2c(=O)n1-c1ccc(Cl)c(Cl)c1 | inconclusive: 14.6 µM [activator, partial curve] |
| c1ccc(Nc2cccc3ccccc23)cc1 | inconclusive: 16.4 µM [activator, partial curve, poor fit] |
| CC(C)OP(=O)(c1ccc(N(C)C)cc1)C(O)c1ccc(Br)cc1 (stereo not given) | inconclusive: 32.6 µM [inhibitor, partial curve, poor fit] |
| O=C1NC(=S)N(Cc2ccco2)C(=O)/C1=C\c1cccs1 | inactive |
| CC(=NCc1ccc2c(c1)OCO2)c1c(O)n(-c2ccccc2)c(=O)[nH]c1=O | inconclusive: 6.51 µM [inhibitor, single point] |
| COc1ccc(CN2CCN(Cc3ccccc3F)CC2)cc1 | inconclusive: 29.1 µM [inhibitor, single point] |
| Cc1ccc(NC(=O)CN(C)CC(=O)Nc2cccc(F)c2)cc1[N+](=O)[O-] | inconclusive: 4.61 µM [inhibitor, full curve] |
| CC/C(=N\N1CCN(C)CC1)c1c(O)[nH]c(=O)[nH]c1=O | inconclusive: 20.6 µM [activator, partial curve, poor fit] |
| O=c1c2ccccc2nc(Cc2ccccc2)n1-c1ccccc1 | inconclusive: 11.6 µM [activator, partial curve, poor fit] |
| Cc1ccc(C2(O)CN3CCC2CC3)cc1 (stereo not given) | inactive |
| CCCCCn1c(=O)c(C(=O)NCCc2ccccc2)c(O)c2ccccc21 | inactive |
| c1ccc(-c2nc(N3CCOCC3)s[n+]2-c2ccccc2)cc1 | inconclusive: 29.1 µM [activator, single point] |
| CC(=O)OC[C@]12CCC(C)=C[C@H]1O[C@@H]1[C@H](O)[C@@H](OC(C)=O)[C@@]2(C)[C@]12CO2 | active: 0.0183 µM |
| O=C1NC(=O)C2(Cc3ccccc3N3CCOCC32)C(=O)N1c1ccccc1 (stereo not given) | inactive |
| CC(=O)O[C@@]12CO[C@@H]1C[C@H](OC1OCC(O)C(O)C1O)[C@@]1(C)C(=O)[C@H](O)C3=C(C)[C@@H](OC(=O)[C@H](O)[C@@H](NC(=O)c4ccccc4)c4ccccc4)C[C@@](O)([C@@H](OC(=O)c4ccccc4)C12)C3(C)C (stereo not given in full) | inactive |
| COc1ccc(C(=O)C2CCCN(Cc3cnc(C)s3)C2)c(OC)c1 (stereo not given) | inactive |
| Cc1cc(C(=O)Nc2ccc3c(c2)OCCO3)nn1C(C)(C)C | inconclusive: 7.3 µM [activator, partial curve] |
| C=CCSc1nnc(NC(=O)c2ccc(Cl)nc2)s1 | inconclusive: 13 µM [activator, partial curve] |
| CCN(C(=O)Oc1ccccc1)c1ccc(C(O)(C(=O)OC)C(F)(F)F)cc1 (stereo not given) | inconclusive: 18.4 µM [activator, partial curve, poor fit] |

Some values from the results shown.
Potency, Cc1ccc(C2(O)CN3CCC2CC3)cc1 (stereo not given) is entered as inactive
Potency, c1ccc(-c2nc(N3CCOCC3)s[n+]2-c2ccccc2)cc1 is entered as inconclusive: 29.1 µM [activator, single point]
Potency, O=c1c2ccccc2nc(Cc2ccccc2)n1-c1ccccc1 is entered as inconclusive: 11.6 µM [activator, partial curve, poor fit]

Next part

| SMILES | Potency |
| --- | --- |
| Cc1cc(C(=O)C[N+]23CCN(CC2)CC3)c(C)n1-c1ccc(Br)cc1 | inactive |
| CC(C)NC(=O)COC(=O)c1ccc(S(=O)(=O)N2CCCC2)cc1 | inconclusive: 7.3 µM [activator, partial curve, poor fit] |
| C/C(=N\OC(=O)NC(C)C)c1sc(-c2ccc(Cl)cc2)nc1C | inconclusive: 2.06 µM [activator, partial curve] |
| CCCNC(=O)c1c(N)n(Cc2ccco2)c2nc3ccccc3nc12 | active: 23.1 µM |
| COc1cc(C(=O)Nc2ccc(Br)cc2C(=O)c2ccccc2)cc(OC)c1OC | inactive |
| COc1ccccc1OP(=O)(Nc1ccc(Br)cc1)Oc1ccccc1OC | inconclusive: 32.6 µM [inhibitor, single point] |
| COc1cc2c(c(OC)c1OC)-c1ccc(OC)c(=O)cc1[C@@H](NC(C)=O)CC2 | inconclusive: 23.1 µM [activator, single point] |
| COC(=O)C1=C(c2ccc(Cl)c(C(F)(F)F)c2)C[C@@H]2CC[C@H]1N2C(=O)N1CCOCC1 | inactive |
| CCOC(=O)c1c(/N=C/C2C(=O)NC(=O)NC2=O)sc2c1CCC2 | inactive |
| CC1=Nc2cc(C(=O)N3CCC4(CC3)OCCO4)ccc2Sc2ccc(Cl)cc21 | inactive |
| CCOc1ccccc1OCC(=O)Nc1ccc(Cl)cc1C(=O)c1ccccc1 | inconclusive: 13 µM [inhibitor, partial curve, poor fit] |
| CC(C)[C@@]1(NC(=O)[C@@H]2C=C3c4cccc5[nH]cc(c45)C[C@H]3N(C)C2)O[C@@]2(O)[C@@H]3CCCN3C(=O)[C@H](Cc3ccccc3)N2C1=O | inactive |
| C/C(=N\NC(=O)c1ccccc1)c1c(O)n(C2CCCCC2)c(=O)[nH]c1=O | inactive |
| O=c1[nH]c(=S)[nH]c(O)c1N=Nc1ccc(OC(F)F)cc1 | inconclusive: 16.4 µM [activator, partial curve] |
| O=C(O)c1ccc2c(c1)C1C(Cl)C(Sc3ccccc3[N+](=O)[O-])CC1C(c1cccc([N+](=O)[O-])c1)N2 (stereo not given) | inactive |
| O=C(Cc1c(O)c2ccccc2oc1=O)c1ccc(F)cc1 | inconclusive: 10 µM [activator, partial curve] |
| CN(C)S(=O)(=O)c1cccc(C(=O)N2CCC(C(=O)O)(c3ccccc3)CC2)c1 | inactive |
| CCCOC1CCCN(C(=O)CCc2nnc(Cc3cccc(C)c3)o2)C1 (stereo not given) | inconclusive: 20.6 µM [activator, partial curve] |
| CCCCc1ncc(CN2CCCC(C(=O)c3ccc(SC)cc3)C2)[nH]1 (stereo not given) | inconclusive: 16.4 µM [inhibitor, single point] |
| CCN(CC)C(=O)c1ccc(NC(=S)NC(=O)CCc2ccccc2)cc1 | inactive |
| CCCCCCCCCCCCCCCC[N+](C)(C)C | inactive |
